{"source": "paper PMC6895180", "about": "(Nature Communications, 2019)", "key": {"[1]": {"test_system": "T. brucei Lister 427 cells", "assay": "Nucleotide pool analysis (HPLC)", "type": "cell-based, Trypanosoma brucei", "description": "(1 picture or pasted object on this page, not shown here)\nThe following primers were used: […]"}, "P1 transporter": {"test_system": "P1 transporter", "type": "cell-based, Trypanosoma brucei", "details": "for P1 transporter ΔG^0: Gibbs free energy from −RT ln(Ki); for P1 transporter δ(ΔG^0): in comparison to adenosine", "experimental": "Non-specific association of radiolabel with the cell pellet was determined using an identical incubation in the presence of saturating (1 mM) unlabelled adenosine."}, "[2]": {"details": "T. brucei treated with analogue 9"}, "[3]": {"details": "T. brucei treated with analogue 9, 4 independent samples"}}, "note": "Values joined by “and” are separate entries in the source; they are usually repeats but may differ in a detail not shown here. Equal values may be shown once.", "data": [{"smiles": "Nc1ncnc2c1ccn2[C@@H]1O[C@H](CO)C[C@H]1O", "note": "[Compound 9, 3’-deoxytubercidin]", "values": [{"measurement": "intracellular fate in T. brucei", "setting": "[1]; 25 μM", "result": "internalized and metabolized by T. brucei to mono-, di- and triphosphates"}, {"measurement": "9-DP", "setting": "[1]; [2]", "result": "4.816 pmol/million cells and 4.114 pmol/million cells and 3.369 pmol/million cells and 6.646 pmol/million cells"}, {"measurement": "9-DP, concentration in sample", "setting": "[1]; [2]", "result": "3.211 µM and 2.742 µM and 2.246 µM and 4.43 µM"}, {"measurement": "9-TP", "setting": "[1]; [2]", "result": "2.086 pmol/million cells and 2.111 pmol/million cells and 2.5512 pmol/million cells and 2.95 pmol/million cells"}, {"measurement": "9-TP, concentration in sample", "setting": "[1]; [2]", "result": "1.39 µM and 1.407 µM and 1.7008 µM and 1.967 µM"}, {"measurement": "ATP", "setting": "[1]; [2]", "result": "5.408 pmol/million cells and 7.169 pmol/million cells and 9.265 pmol/million cells and 6.853 pmol/million cells"}, {"measurement": "ATP, concentration in sample", "setting": "[1]; [2]", "result": "3.606 µM and 4.779 µM and 6.177 µM and 4.569 µM"}, {"measurement": "CTP", "setting": "[1]; [2]", "result": "0.05947 pmol/million cells and 0.07319 pmol/million cells and 0.09378 pmol/million cells and 0.06404 pmol/million cells"}, {"measurement": "CTP, concentration in sample", "setting": "[1]; [2]", "result": "0.03965 µM and 0.0488 µM and 0.06252 µM and 0.0427 µM"}, {"measurement": "GTP", "setting": "[1]; [2]", "result": "1.703 pmol/million cells and 2.243 pmol/million cells and 2.533 pmol/million cells and 2.088 pmol/million cells"}, {"measurement": "GTP, concentration in sample", "setting": "[1]; [2]", "result": "1.136 µM and 1.495 µM and 1.689 µM and 1.392 µM"}, {"measurement": "UTP", "setting": "[1]; [2]", "result": "1.47 pmol/million cells and 1.938 pmol/million cells and 2.374 pmol/million cells and 1.838 pmol/million cells"}, {"measurement": "UTP, concentration in sample", "setting": "[1]; [2]", "result": "0.98 µM and 1.292 µM and 1.582 µM and 1.225 µM"}, {"measurement": "dATP", "setting": "[1]; [2]", "result": "0.06549 pmol/million cells and 0.08272 pmol/million cells and 0.09306 pmol/million cells and 0.05859 pmol/million cells"}, {"measurement": "dATP, concentration in sample", "setting": "[1]; [2]", "result": "0.04366 µM and 0.05515 µM and 0.06204 µM and 0.03906 µM"}, {"measurement": "dCTP", "setting": "[1]; [2]", "result": "0.05189 pmol/million cells and 0.07647 pmol/million cells and 0.09423 pmol/million cells and 0.08603 pmol/million cells"}, {"measurement": "dCTP, concentration in sample", "setting": "[1]; [2]", "result": "0.0346 µM and 0.05098 µM and 0.06282 µM and 0.05736 µM"}, {"measurement": "dGTP", "setting": "[1]; [2]", "result": "0.04627 pmol/million cells and 0.03663 pmol/million cells and 0.0347 pmol/million cells and 0.05977 pmol/million cells"}, {"measurement": "dGTP, concentration in sample", "setting": "[1]; [2]", "result": "0.03085 µM and 0.02442 µM and 0.02314 µM and 0.03985 µM"}, {"measurement": "dTTP", "setting": "[1]; [2]", "result": "0.3278 pmol/million cells and 0.3871 pmol/million cells and 0.4104 pmol/million cells and 0.3458 pmol/million cells"}, {"measurement": "dTTP, concentration in sample", "setting": "[1]; [2]", "result": "0.2185 µM and 0.2581 µM and 0.2736 µM and 0.2306 µM"}, {"measurement": "ADP", "setting": "[1]; [3]", "result": "6.536 pmol/million cells and 8.004 pmol/million cells and 7.815 pmol/million cells and 7.971 pmol/million cells"}, {"measurement": "ADP, concentration in sample", "setting": "[1]; [3]", "result": "4.357 µM and 5.336 µM and 5.21 µM and 5.3143 µM"}, {"measurement": "P1 transporter ΔG^0", "setting": "P1 transporter", "result": -5.45, "unit": "kcal/mol"}, {"measurement": "P1 transporter δ(ΔG^0)", "setting": "P1 transporter", "result": 3.97, "unit": "kcal/mol"}]}, {"smiles": "Nc1ncnc2c1c(Br)cn2[C@@H]1O[C@H](CO)[C@@H](O)[C@H]1O", "note": "[Compound 8, 7-bromotubercidin]", "values": [{"measurement": "δ(ΔG^0) associated with the 3′-OH at P1", "setting": "P1 transporter; 8 versus 10", "result": 0.382, "unit": "kcal/mol"}, {"measurement": "P1 transporter ΔG^0", "setting": "P1 transporter", "result": -7.24, "unit": "kcal/mol"}, {"measurement": "P1 transporter δ(ΔG^0)", "setting": "P1 transporter", "result": 2.17, "unit": "kcal/mol"}]}, {"smiles": "Nc1ncnc2c1c(Br)cn2[C@@H]1O[C@H](CO)C[C@H]1O", "note": "[Compound 10, 3’-deoxy-7-Br-tubercidin]", "values": [{"measurement": "Gibbs free energy recovered at P1", "setting": "P1 transporter; 10 versus 9", "result": 1.41, "unit": "kcal/mol"}, {"measurement": "P1 transporter ΔG^0", "setting": "P1 transporter", "result": -6.86, "unit": "kcal/mol"}, {"measurement": "P1 transporter δ(ΔG^0)", "setting": "P1 transporter", "result": 2.56, "unit": "kcal/mol"}]}, {"smiles": "Nc1ncnc2c1ncn2[C@@H]1O[C@H](CO)[C@@H](O)[C@H]1O", "note": "[Adenosine, reference compound]", "values": [{"measurement": "P1 transporter ΔG^0", "setting": "P1 transporter", "result": -9.42, "unit": "kcal/mol"}]}, {"smiles": "Nc1ncnc2c1ncn2[C@@H]1O[C@H](CO)C[C@H]1O", "note": "[Compound 3, cordycepin, reference compound]", "values": [{"measurement": "P1 transporter ΔG^0", "setting": "P1 transporter", "result": -5.02, "unit": "kcal/mol"}, {"measurement": "P1 transporter δ(ΔG^0)", "setting": "P1 transporter", "result": 4.4, "unit": "kcal/mol"}]}]}
